Laboratory results as given in PMC7819943, “Rice protein-binding microarrays: a tool to detect cis-acting elements near promoter regions in rice”.
This is one part of the list.

Protein sequences, listed by entry. Tags and fused reporters are not part of them.
UniProt Q0JBA9, entry or part of it: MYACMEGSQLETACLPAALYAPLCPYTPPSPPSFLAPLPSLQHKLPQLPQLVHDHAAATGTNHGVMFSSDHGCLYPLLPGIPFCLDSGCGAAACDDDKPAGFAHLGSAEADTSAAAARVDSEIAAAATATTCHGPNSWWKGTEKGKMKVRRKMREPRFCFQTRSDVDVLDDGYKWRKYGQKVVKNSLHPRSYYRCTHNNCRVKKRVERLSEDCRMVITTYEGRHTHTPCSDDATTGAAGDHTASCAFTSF

target: OsWRKY34 (Oryza sativa, UniProt Q0JBA9 1-250); assay: protein-binding microarray (RPBM); PBS, 2% BSA, 51.3 ng/ul salmon testes DNA, 50 uM zinc acetate, 200 nM TF, 25 C, 1 h; high values mean tight binding; conditions: protein: recombinant; tags: N-terminal polyhistidine and DsRed monomer fusion (pET32a); label: CyDye5-dUTP incorporated in the synthesized complementary strand; 3' TTTTT single-stranded linker to array surface; dsDNA, one strand shown
Outline: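 The binding signal is fluorescence intensity per array feature (arbitrary units). Readings came from an Axon 4000B scanner after a washed, 2% BSA-blocked, double-stranded custom Agilent array had been incubated for 1 h at 25 °C with 200 nM protein and 50 µM zinc acetate. The protein was a Ni–NTA-purified transcription factor fused N-terminally to polyhistidine and DsRed, expressed in E. coli BL21-CodonPlus.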

**Q.** With “TTTCCACAGCTGCCGGCTTACTTCTACTTCCTTGTCTTCTCGGAGTCACCTAGTGCAG” as the sequence, how does the binding signal read?
**A.** 9570 fluorescence intensity (a.u.)

**Q.** Which binding signal does the source give for “ACGTACTGCCCAACCCTCGCCGCGGTATCGTAACTCGTAACGGAGTCACCTAGTGCAG” here?
**A.** 9600 fluorescence intensity (a.u.)

**Q.** “GCGAGCACACACATTTTCCTACATGGACACCTTGATGTCCCGGAGTCACCTAGTGCAG” was tested. Which binding signal did it give?
**A.** 8080 fluorescence intensity (a.u.)

**Q.** “GAGGTACTTGATTCATTACTATGTTTTCTTTTTGTTCTTTCGGAGTCACCTAGTGCAG” was tested. Which binding signal did it give?
**A.** 8800 fluorescence intensity (a.u.)

**Q.** For “TATTTATTCTTTTCATATGATCTGATTCATTGTTAAATATCGGAGTCACCTAGTGCAG”, which binding signal is on record?
**A.** 8720 fluorescence intensity (a.u.)

**Q.** How did the binding signal turn out when “TACACACAGACACACTACTCTGCCTTTCTACACATACACCCGGAGTCACCTAGTGCAG” was run?
**A.** 13600 fluorescence intensity (a.u.)

**Q.** Which binding signal does the source give for “TCTCTTAATTGATGTACATATTTGTTATTAACATGTGGACCGGAGTCACCTAGTGCAG” here?
**A.** 9010 fluorescence intensity (a.u.)

**Q.** For “CTTCTCCGGCCGCCTCGAGCGCCAGTTCTCCAGCCTCCGCCGGAGTCACCTAGTGCAG”, which binding signal is on record?
**A.** 9360 fluorescence intensity (a.u.)

**Q.** Which binding signal does the source give for “CGAGAAGGTTCCACACACACACACGGCCACCCGCATCCGCCGGAGTCACCTAGTGCAG” here?
**A.** 8530 fluorescence intensity (a.u.)

**Q.** For “ATGTCCATATTTATTTTATTGTGACGTGTCCAGATTTATTCGGAGTCACCTAGTGCAG”, which binding signal is on record?
**A.** 8770 fluorescence intensity (a.u.)

**Q.** “TTTTGTTCTGCATTCTTTGTTAATGGTATCGTATTTTTTCCGGAGTCACCTAGTGCAG” was tested. Which binding signal did it give?
**A.** 12700 fluorescence intensity (a.u.)

**Q.** For “ACTCTTGCCATTTCTACTATAAGTGTTTGTTTTGATGGTACGGAGTCACCTAGTGCAG”, which binding signal is on record?
**A.** 9710 fluorescence intensity (a.u.)

**Q.** For “CAAAGCAGCAGCCATCACCAGATAACCCCGCCCGCATGCCCGGAGTCACCTAGTGCAG”, which binding signal is on record?
**A.** 10100 fluorescence intensity (a.u.)

**Q.** With “TTGTTGCGGTTGATTTTTTGTATTTGGTGTTGCTTTGATGCGGAGTCACCTAGTGCAG” as the sequence, how does the binding signal read?
**A.** 10900 fluorescence intensity (a.u.)

**Q.** Which binding signal does the source give for “AGTGACCCTTTTTATATCTTCTGTCGGCAGTTTTGTAGTTCGGAGTCACCTAGTGCAG” here?
**A.** 13800 fluorescence intensity (a.u.)

**Q.** “AACCGAACCCACTCACCCAACCAACCGCAGAGCGAGAGCCCGGAGTCACCTAGTGCAG” was tested. Which binding signal did it give?
**A.** 8060 fluorescence intensity (a.u.)

**Q.** How did the binding signal turn out when “GTTTTATAATGTAAGTCATTTTAGCATTTCCCACATTCATCGGAGTCACCTAGTGCAG” was run?
**A.** 8490 fluorescence intensity (a.u.)

**Q.** Which binding signal does the source give for “TCATAACTTTATCTCTCTCATTTTTCGGCCACACGCTCAACGGAGTCACCTAGTGCAG” here?
**A.** 9690 fluorescence intensity (a.u.)

**Q.** With “ATCATGTATATCATTGTATTGTTTTGTGTTTCTCCTCTAGCGGAGTCACCTAGTGCAG” as the sequence, how does the binding signal read?
**A.** 11900 fluorescence intensity (a.u.)

**Q.** With “CGCCGCCATTGATCTGGTTTTGGTTTTGTGAGGAGGAGAACGGAGTCACCTAGTGCAG” as the sequence, how does the binding signal read?
**A.** 13000 fluorescence intensity (a.u.)

**Q.** “AATTTTACTTCCGTCGTCCACACTTCATCCATCGTTCGCCCGGAGTCACCTAGTGCAG” was tested. Which binding signal did it give?
**A.** 14700 fluorescence intensity (a.u.)

**Q.** With “GTCTTTGTTCAATTGTTCTTTGGCATGAATATTTTGTCAACGGAGTCACCTAGTGCAG” as the sequence, how does the binding signal read?
**A.** 12300 fluorescence intensity (a.u.)

**Q.** How did the binding signal turn out when “AAAACTTAGCTAGTTCAGCATCTCTGGTTCCTCACTTTATCGGAGTCACCTAGTGCAG” was run?
**A.** 9060 fluorescence intensity (a.u.)

**Q.** “AGGTGGGTTGTTAATGTTGAACCGAGGTAGCGTGGTGGTGCGGAGTCACCTAGTGCAG” was tested. Which binding signal did it give?
**A.** 8870 fluorescence intensity (a.u.)

**Q.** “CACGGTTAGAGAGCTATAGCATACATAACTCACCAATTATCGGAGTCACCTAGTGCAG” was tested. Which binding signal did it give?
**A.** 8180 fluorescence intensity (a.u.)

**Q.** “TATCGCGGATCGCCGCTGTTGCCTTTTTGGCTCCTGGGTTCGGAGTCACCTAGTGCAG” was tested. Which binding signal did it give?
**A.** 8820 fluorescence intensity (a.u.)

**Q.** How did the binding signal turn out when “TGGTTGTTCCTATTTCCTATTGTTTTCTCATTCATATGAACGGAGTCACCTAGTGCAG” was run?
**A.** 8780 fluorescence intensity (a.u.)

**Q.** How did the binding signal turn out when “GGAGTGTGTGATGCCATTGTAGGTATGTATGTGAAAACTGCGGAGTCACCTAGTGCAG” was run?
**A.** 8300 fluorescence intensity (a.u.)

**Q.** “AAATGGGCATTATTGTGTGTAGTAGCATTTTGACATGTATCGGAGTCACCTAGTGCAG” was tested. Which binding signal did it give?
**A.** 9260 fluorescence intensity (a.u.)

**Q.** “CTGCGTGTATAGAAGGGCGGTTGCTGGTGGGAGGAGGAGGCGGAGTCACCTAGTGCAG” was tested. Which binding signal did it give?
**A.** 8070 fluorescence intensity (a.u.)

**Q.** With “GAAATTCCTCGGTTTCCACGCGCGCTTTGGCATTTCTTTTCGGAGTCACCTAGTGCAG” as the sequence, how does the binding signal read?
**A.** 9920 fluorescence intensity (a.u.)

**Q.** “CGGGGTTTGCGGAGGAAGGGGAGGGGCACCGCCCGCGATGCGGAGTCACCTAGTGCAG” was tested. Which binding signal did it give?
**A.** 8700 fluorescence intensity (a.u.)

**Q.** “TCAAGCCTGAGACGGCCTATTTGTCATTCTGTGGATATACCGGAGTCACCTAGTGCAG” was tested. Which binding signal did it give?
**A.** 8270 fluorescence intensity (a.u.)

**Q.** With “TCTCGTGCTCTTGACCGCGCCCACCTTCTCCGGCCCGCGCCGGAGTCACCTAGTGCAG” as the sequence, how does the binding signal read?
**A.** 11400 fluorescence intensity (a.u.)

**Q.** How did the binding signal turn out when “TTTTATGCTTCAGTATCTAGTTTCCTGTTGTCATACTTAGCGGAGTCACCTAGTGCAG” was run?
**A.** 12200 fluorescence intensity (a.u.)

**Q.** “TGAGTTGTTTAGTATGGAGGTGGGATAATTATTTTCTTTACGGAGTCACCTAGTGCAG” was tested. Which binding signal did it give?
**A.** 12000 fluorescence intensity (a.u.)

**Q.** How did the binding signal turn out when “ATGTTTTGTTTGATTGTGTGCATGCCCTCTTTCTTATGATCGGAGTCACCTAGTGCAG” was run?
**A.** 13500 fluorescence intensity (a.u.)

**Q.** “ATCGCTGGGACACGTCACCTTCCTTTCTATGCTCTCTTGACGGAGTCACCTAGTGCAG” was tested. Which binding signal did it give?
**A.** 11100 fluorescence intensity (a.u.)

**Q.** Which binding signal does the source give for “TTCTTGTGTTTTTCCTATGACCTAATCTAACGATCATTCACGGAGTCACCTAGTGCAG” here?
**A.** 8230 fluorescence intensity (a.u.)

**Q.** Which binding signal does the source give for “ATGCACTTTCCCACCGCATGTCTCGTCTCTAGCTATCTTGCGGAGTCACCTAGTGCAG” here?
**A.** 8750 fluorescence intensity (a.u.)

**Q.** “CACGACGCAGCATATGCTTGACCTTTATGTGTTTTACATACGGAGTCACCTAGTGCAG” was tested. Which binding signal did it give?
**A.** 9030 fluorescence intensity (a.u.)

**Q.** With “CATCACCTCGCCCAGCCCGAACCATTCCCACCCCTCCAAACGGAGTCACCTAGTGCAG” as the sequence, how does the binding signal read?
**A.** 9430 fluorescence intensity (a.u.)

**Q.** How did the binding signal turn out when “ATTTCTTTTTCTAGGATGATCCTTTAGTAGTATCCTTTTTCGGAGTCACCTAGTGCAG” was run?
**A.** 9840 fluorescence intensity (a.u.)

**Q.** For “TCCCAGTGAAATAGTTACGTATTTTGTTTGTATACACGCGCGGAGTCACCTAGTGCAG”, which binding signal is on record?
**A.** 8360 fluorescence intensity (a.u.)

**Q.** With “GCACACGTCCGCGCGACGCTTCGGTTTCCGCTTTCCATGCCGGAGTCACCTAGTGCAG” as the sequence, how does the binding signal read?
**A.** 8700 fluorescence intensity (a.u.)

**Q.** For “AGATTTTTTTGAACTTTCTGTCTGGGTCGGCTGTTTGTGTCGGAGTCACCTAGTGCAG”, which binding signal is on record?
**A.** 10500 fluorescence intensity (a.u.)

**Q.** How did the binding signal turn out when “TTGCAAAATCTCTCTTCCCCATCGCCTCGGGTTTTGATCTCGGAGTCACCTAGTGCAG” was run?
**A.** 9380 fluorescence intensity (a.u.)

**Q.** With “GCTGCTTCTCGATGAGGAATATTTTTTTTGCTTCGGTTAACGGAGTCACCTAGTGCAG” as the sequence, how does the binding signal read?
**A.** 9740 fluorescence intensity (a.u.)

**Q.** With “CTACTGTAGCCACTGCTCGCTCTGCACTCTCTCTCTGTCTCGGAGTCACCTAGTGCAG” as the sequence, how does the binding signal read?
**A.** 9600 fluorescence intensity (a.u.)

**Q.** For “ACCGCACAGAGAGGGAGGAGGCGGGGAGGACGGTGAGGGGCGGAGTCACCTAGTGCAG”, which binding signal is on record?
**A.** 10500 fluorescence intensity (a.u.)

**Q.** “TGGAGGTGGTGGTGGGAGGAAGGGGAGGAGGAGGCGCGGCCGGAGTCACCTAGTGCAG” was tested. Which binding signal did it give?
**A.** 15100 fluorescence intensity (a.u.)

**Q.** How did the binding signal turn out when “CTCCCGCCGTCTCCGTCACCGTCTACCGTTTGCTCCAGTGCGGAGTCACCTAGTGCAG” was run?
**A.** 9530 fluorescence intensity (a.u.)

**Q.** “GTGTTTATCCCTTTTCAGACTGTTCTTTTTGGCTAAAACTCGGAGTCACCTAGTGCAG” was tested. Which binding signal did it give?
**A.** 10900 fluorescence intensity (a.u.)

**Q.** Which binding signal does the source give for “GACGTCCACTCATTTATTGCCGTTCTACTATCTTACTGATCGGAGTCACCTAGTGCAG” here?
**A.** 11500 fluorescence intensity (a.u.)
